{
  "source": "patent US12697322B2",
  "about": "“Methods of treating cancer using androgen receptor antagonists” (Garvan Institute of Medical Research, priority 2019, dated 2026)",
  "system": "HMLER and HCC38 CD44^Lo cells",
  "test": "Flow cytometry of chemotherapy-induced CD44^Lo to CD44^Hi plasticity",
  "type": "cell-based, human",
  "conditions": "one dose of chemotherapy for 72 hours",
  "source_text": "Cells were stained and fixed as with DHT treatment.\nUsing purified populations of CD44^Lo cells (with no CD44^Hi fraction) the effects of chemotherapy on cellular plasticity was investigated using flow cytometry.",
  "note": "At least one compound was matched to its structure with a doubt left.",
  "data": [
    {"smiles": "C[C@H]1c2cccc(O)c2C(=O)C2=C(O)[C@]3(O)C(=O)C(C(N)=O)=C(O)[C@@H](N(C)C)[C@@H]3[C@@H](O)[C@@H]21", "note": "[Doxycycline]", "values": [
      {"measurement": "induction of CD44^Lo-to-CD44^Hi transition by chemotherapy", "result": "induces CD44^Lo cells to switch to the CD44^Hi state"}
    ]}
  ]
}
